Measured values reported in PubChem BioAssay AID2685 (National Center for Advancing Translational Sciences (NCATS), 2010).
Some of the results follow. Shown are side measurements of this screen, not its main read-out; they come without a call. Most of these compounds were active or inconclusive in the main read-out, so they are no random draw. Words in brackets tell the shape of the fitted curve; partial curves, single points and poor fits give uncertain potencies.

Assay: qHTS Assay for Lipid Storage Modulators in Drosophila S3 Cells;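 on cell number change: cells counted by Cell Tracker Red CMTPX staining in the red channel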
Conditions: BODIPY lipid droplet fluorescence, 18-24 h; for cell number change: measured here: cell count max response, cells fed with added oleic acid
In short: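 Drosophila S3 cells got compounds at several concentrations plus oleic acid (400 uM solution). Laser-scanning cytometry with 488 nm excitation read lipid droplets at 500-530 nm and cells at 575-640 nm. Percent activity was relative to 20 uM Triacsin C.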

[1] = measured here: lipid fluorescence (Fed channel) AC50, cells fed with added oleic acid
[2] = measured here: cell number channel AC50, cells fed with added oleic acid

| SMILES | cell number change | AC50 [1] | AC50 [2] |
| --- | --- | --- | --- |
| CC(=O)c1cc2c(cc1NC(=O)c1cnc(C)cn1)OCO2 | 18.8% | 0.184 µM [rising, full curve, poor fit] | – |
| COc1ccccc1Cn1c(=S)[nH]c2cc(C(=O)NCc3cccnc3)ccc2c1=O | 21.6% | – | 0.082 µM [falling, full curve, poor fit] |
| Nc1n[nH]c(C(F)(F)F)c1-c1ccccc1 | – | 0.651 µM [falling, full curve] | 0.82 µM [falling, single point] |
| CC1(C(=O)O)COC(c2ccc([N+](=O)[O-])cc2)OC1 (stereo unspecified) | -5.79% | 6.51 µM [falling, single point] | – |
| C=CCc1cccc(/C=N/NC(=O)CCCNc2ccc(C)cc2)c1O | -66.4% | 14.6 µM [falling, partial curve] | 13 µM [falling, partial curve] |
| CCN(CC)CCNC(=O)c1cc2c(=O)n(C)c3ccccc3c2n1C | – | 0.184 µM [falling, full curve] | – |
| COc1ccc(NC(=O)C(c2ccccc2)N(C)C(=O)c2cnccn2)cc1 (stereo unspecified) | 5.34% | 5.8 µM [rising, partial curve] | – |
| O=C(O)c1ccc(S(=O)(=O)NCC2CCCCC2)cc1 | -7.91% | 6.51 µM [rising, single point] | – |
| COc1ccc(C2N=C(N)N=C(N)N2c2ccccc2)cc1OC (stereo unspecified) | 2.78% | – | 0.0259 µM [rising, full curve, poor fit] |
| COc1cc(OC)cc(C(=O)NNC(=O)c2ccc3ccccc3n2)c1 | -8.03% | – | – |
| Cc1ccc(Cl)cc1N1CCN(S(=O)(=O)c2ccc3[nH]c(=O)ccc3c2)CC1 | -1.44% | 16.4 µM [falling, single point] | – |
| COc1ccc(N(CC(=O)NCc2ccc(Cl)cc2)S(=O)(=O)c2ccccc2[N+](=O)[O-])c(OC)c1 | -16.1% | 20.6 µM [falling, partial curve, poor fit] | – |
| Cc1cccc(NC(=O)CN(C)C(=O)C2CCCC2)c1C | 5.06% | 5.17 µM [rising, full curve, poor fit] | – |
| Cc1cc(C)c2nc(N3CCCC(C(=O)NCCCN4CCOCC4)C3)sc2c1 (stereo unspecified) | 49.9% | – | 9.2 µM [rising, partial curve] |
| Cc1cc(C)c(NC(=O)Cn2nnc(C(=O)NCc3ccco3)c2N)c(C)c1 | 67.3% | 16.4 µM [rising, partial curve] | 10.3 µM [rising, partial curve] |
| Cc1cccc(C)c1NC(=O)CN(C)C(=O)CCc1nc2sc3c(c2c(=O)[nH]1)CCCC3 | 3.89% | – | – |

An excerpt from above, showing only AC50 [1] and AC50 [2]:
SMILES	AC50 [1]	AC50 [2]
CC(=O)c1cc2c(cc1NC(=O)c1cnc(C)cn1)OCO2	0.184 µM [rising, full curve, poor fit]	–
COc1ccccc1Cn1c(=S)[nH]c2cc(C(=O)NCc3cccnc3)ccc2c1=O	–	0.082 µM [falling, full curve, poor fit]
